No constants are given. Whether binding was seen depends on the method and setting. In cells and extracts the contact can be indirect. Some entries that bind do so weakly or less than the wild type. Where a sequence is shown, tags or fusion partners need not be part of it.
Experiments:
[1] = molecular target: T1, ΔC250-KIAA1199 mutant (FLAG) (human (cDNA from CaSki cells)) (UniProt Q8WUJ3); experiment: co-IP; cells transfected with KIAA1199-FLAG wild type or ΔN/ΔC mutants; anti-FLAG IP (anti-HA as negative control) followed by anti-EGFR blot
T1 sequence: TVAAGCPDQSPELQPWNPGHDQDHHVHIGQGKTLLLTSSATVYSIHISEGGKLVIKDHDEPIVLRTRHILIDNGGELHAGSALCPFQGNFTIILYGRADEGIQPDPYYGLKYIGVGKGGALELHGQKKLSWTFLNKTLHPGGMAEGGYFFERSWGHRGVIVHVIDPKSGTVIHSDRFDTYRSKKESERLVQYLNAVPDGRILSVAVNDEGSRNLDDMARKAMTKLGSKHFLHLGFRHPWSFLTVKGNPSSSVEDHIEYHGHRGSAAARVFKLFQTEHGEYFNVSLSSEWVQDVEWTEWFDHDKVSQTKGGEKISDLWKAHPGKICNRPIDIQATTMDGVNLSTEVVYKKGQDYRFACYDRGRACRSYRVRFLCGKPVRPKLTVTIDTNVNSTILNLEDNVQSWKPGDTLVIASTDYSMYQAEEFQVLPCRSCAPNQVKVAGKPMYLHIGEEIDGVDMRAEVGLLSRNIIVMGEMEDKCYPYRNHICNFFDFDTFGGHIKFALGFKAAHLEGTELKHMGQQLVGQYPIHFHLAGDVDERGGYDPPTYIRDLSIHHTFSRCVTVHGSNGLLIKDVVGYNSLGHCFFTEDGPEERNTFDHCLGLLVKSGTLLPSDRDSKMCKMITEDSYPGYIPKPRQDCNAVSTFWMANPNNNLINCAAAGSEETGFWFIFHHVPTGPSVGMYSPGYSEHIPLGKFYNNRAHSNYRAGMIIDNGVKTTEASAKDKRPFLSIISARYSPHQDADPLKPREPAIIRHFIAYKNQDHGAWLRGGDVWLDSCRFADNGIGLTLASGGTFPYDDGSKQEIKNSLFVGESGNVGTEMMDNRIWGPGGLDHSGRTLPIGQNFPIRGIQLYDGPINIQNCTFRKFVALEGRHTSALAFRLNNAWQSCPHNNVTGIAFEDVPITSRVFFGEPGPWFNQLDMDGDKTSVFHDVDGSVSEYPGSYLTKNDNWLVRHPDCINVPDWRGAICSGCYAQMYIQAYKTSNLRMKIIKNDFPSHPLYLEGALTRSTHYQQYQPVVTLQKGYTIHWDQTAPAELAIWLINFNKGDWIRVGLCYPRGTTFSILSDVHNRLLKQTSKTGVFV

[2] = molecular target: T2, ΔN250-KIAA1199 mutant (FLAG) (human (cDNA from CaSki cells)) (UniProt Q8WUJ3); experiment: as above
T2 sequence: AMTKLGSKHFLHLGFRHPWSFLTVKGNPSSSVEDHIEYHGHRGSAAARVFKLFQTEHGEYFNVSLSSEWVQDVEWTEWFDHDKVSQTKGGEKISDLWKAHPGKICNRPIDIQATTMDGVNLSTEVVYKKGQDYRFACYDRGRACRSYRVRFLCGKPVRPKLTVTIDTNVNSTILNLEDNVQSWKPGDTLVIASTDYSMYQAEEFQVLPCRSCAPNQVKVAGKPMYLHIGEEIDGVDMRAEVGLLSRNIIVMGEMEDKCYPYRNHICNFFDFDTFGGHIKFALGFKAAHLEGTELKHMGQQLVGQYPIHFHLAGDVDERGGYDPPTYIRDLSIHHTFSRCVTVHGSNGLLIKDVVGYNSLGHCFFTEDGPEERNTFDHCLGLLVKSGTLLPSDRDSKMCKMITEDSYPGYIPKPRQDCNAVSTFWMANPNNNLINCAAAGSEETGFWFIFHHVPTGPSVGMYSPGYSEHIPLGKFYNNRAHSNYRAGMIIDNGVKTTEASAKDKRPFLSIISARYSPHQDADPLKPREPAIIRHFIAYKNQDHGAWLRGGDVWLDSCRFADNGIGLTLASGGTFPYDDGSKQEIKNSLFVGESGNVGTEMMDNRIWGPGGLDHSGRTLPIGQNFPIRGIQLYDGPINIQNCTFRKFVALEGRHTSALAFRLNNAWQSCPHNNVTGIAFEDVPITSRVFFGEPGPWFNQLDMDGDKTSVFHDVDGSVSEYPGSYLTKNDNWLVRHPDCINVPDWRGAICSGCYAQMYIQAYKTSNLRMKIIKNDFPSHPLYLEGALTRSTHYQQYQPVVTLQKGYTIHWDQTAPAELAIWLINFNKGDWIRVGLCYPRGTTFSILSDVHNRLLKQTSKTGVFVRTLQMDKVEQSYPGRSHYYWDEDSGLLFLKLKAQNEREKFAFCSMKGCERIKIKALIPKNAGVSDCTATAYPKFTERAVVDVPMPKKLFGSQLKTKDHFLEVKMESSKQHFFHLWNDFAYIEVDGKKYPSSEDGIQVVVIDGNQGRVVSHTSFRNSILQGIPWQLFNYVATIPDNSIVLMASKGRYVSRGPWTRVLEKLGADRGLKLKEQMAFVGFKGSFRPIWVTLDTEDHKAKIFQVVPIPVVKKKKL

binding [1]: binds
binding [2]: no binding
Substance: EGFR (in extracts of transfected cells, Figure 5e) (from UniProt P00533 25-1210) (receptor)

From paper PMC4241993
